Test results as given in PubChem BioAssay AID2685 (National Center for Advancing Translational Sciences (NCATS), 2010).
Among all 320,000 compounds or so, about 2,100 (0.66%) were called active. The inconclusive results got no clear call from the source; some entries with a clear call stand among them for comparison. Calls come from the whole dose curve; as a rule, active = well fitted inhibition curve with a large enough effect in the signal ratio, with a control signal flat (not every such curve was filed as active); inconclusive = small, poorly fitted or top-dose-only effect, or effect the other way, or a change in a side signal; inactive = flat fitted curve, though single readings scatter; the % refers to the signal ratio. Potencies of inconclusive entries are doubtful fits and often do not repeat.

Experiment: qHTS Assay for Lipid Storage Modulators in Drosophila S3 Cells
Conditions: BODIPY lipid droplet fluorescence, 18-24 h, cells fed with added oleic acid; lipid storage change, negative = inhibition: at 46.1 µM (top of the series) unless noted
Outline: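 Drosophila S3 cells loaded with oleic acid (400 uM, as added) and compounds at several concentrations; lipid droplets imaged by 488-nm laser-scanning cytometry, 500–530 nm intensity and object ratio to cell channel. Percent activity normalized to 20 uM Triacsin C.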
% is set by controls: 0 for no effect and ±100 for the full control effect; potency is the fitted concentration of half-maximal effect.

Structure (SMILES)	lipid storage change, negative = inhibition	Potency
Cc1cc([N+](=O)[O-])nn1CCC(=O)NC1CCCCCC1	inconclusive: 22.1%	
CC(NC(=O)c1ccccc1Br)c1nnc(SCC(=O)NC2CCCCC2)n1C (configuration not stated)	inconclusive: -6.81%	
O=C(Nc1ccc(Br)cn1)c1cccc(-c2cc3ccccc3oc2=O)c1		inconclusive: 16.4 µM [cytotoxic, single point]
O=C(O)CCNS(=O)(=O)c1ccccc1Br	inconclusive: -70.7%	
Cc1nn(C2CCS(=O)(=O)C2)c(Cl)c1/C=C/C(=O)OCC(=O)c1cc(C)n(-c2ccc(F)cc2)c1C (configuration not stated)	inconclusive: 21.2%	
C=CCn1c(SCC(=O)Nc2cc(NC(C)=O)ccc2OC)nnc1-c1ccccn1	inconclusive: 5.12%	
CC(SC(=S)N1CCOCC1)C(=O)O (configuration not stated)		inconclusive: 0.0731 µM [falling, full curve]
CCOCCn1c(=O)c2c(nc3n2CCCN3Cc2ccccc2)n(C)c1=O	inconclusive: -5.66%	
COc1ncnc2c1oc1nc(C(C)C)c3c(c12)CC(C)(C)OC3	inconclusive: 1%	
CCC/C(=N\NC(=O)c1ccc(OC)c(OC)c1)c1ccccc1	inconclusive: 77.7%	
CC(C)=CC1C=C(C)C(C)C2C(=O)NNC(=O)C12 (configuration not stated)		inconclusive: 9.2 µM [rising, partial curve, poor fit]
O=C(CSc1nn(-c2ccc(F)cc2)c(=S)s1)NC1CCS(=O)(=O)C1 (configuration not stated)		inconclusive: 20.6 µM [rising, partial curve]
Cc1cc(C(=O)NNC(=O)NC(C)C)no1	inconclusive: 0.0747%	
c1sc2[n+](c1C13CC4CC(CC(C4)C1)C3)CCS2		inconclusive: 0.0046 µM [falling, partial curve, poor fit]
COc1cc(NS(=O)(=O)c2ccc3c(c2)oc(=O)n3C)cc(OC)c1OC	inconclusive: -24.8%	
COc1cc2ccccc2cc1C(=O)N(CCN(C)C)c1nc2ccc(C)cc2s1		inconclusive: 1.03 µM [activator, full curve, poor fit]
CCOC(=O)c1cnc2c(C)c(Cl)ccc2c1NCCCN1CCOCC1	inconclusive: -75.1%	
O=C(Nc1ccn(Cc2ccccc2F)n1)c1ccc(COc2ccccc2Cl)cc1		inconclusive: 14.6 µM [activator, partial curve]
CCOP(=O)(OCC)C(Nc1cccc(C(F)(F)F)c1)c1ccc(F)cc1 (configuration not stated)	inconclusive: 5.4%	
O=[N+]([O-])c1ccccc1/C=C/C=N/n1c(-c2ccccc2)n[nH]c1=S	inconclusive: 31.9%	
COc1ccc(-n2c(Cn3nnc4ccccc43)nnc2SCC(=O)O)cc1		inconclusive: 0.82 µM [falling, full curve, poor fit]
CCc1ccc(C2C(C#N)=C(N)SC(N)=C2C#N)s1	inconclusive: -29%	
CC(=O)N/C(=C\c1ccccc1)C(=O)OC(C)C(=O)Nc1ccccc1F (configuration not stated)	inconclusive: 7.74%	
N#C/C(=C\c1cccnc1)C(=O)Nc1ccc(S(N)(=O)=O)cc1		inconclusive: 11.6 µM [falling, single point]
Cn1c(COc2ccc3ccccc3c2)nnc1SCC(N)=O	inconclusive: 4.9%	
Cc1cc(C)c2nc(N(CCN(C)C)C(=O)/C=C/c3cccs3)sc2c1		inconclusive: 29.1 µM [falling, single point]

Structure (SMILES)	lipid storage change, negative = inhibition	Potency
COCCNC(=O)/C(C#N)=C/c1ccc(-c2ccc(S(=O)(=O)N3CCOCC3)cc2)o1		inconclusive: 6.51 µM [activator, partial curve, poor fit]
COc1ccc(/C=C2\SC(=S)N(CC(=O)Nc3nnc(C)s3)C2=O)cc1	inconclusive: 1.63%	
O=C(Cc1ccccc1)NNS(=O)(=O)c1ccc(F)cc1	inconclusive: 7.57%	
CCCOc1ccc(C(=O)NC(=S)NCc2cccnc2)cc1	inconclusive: 25.5%	
Cc1n[nH]c(=O)c2c(NC(=O)CSc3ncccn3)oc(C)c12		inconclusive: 0.366 µM [rising, full curve, poor fit]
Cc1csc(CNc2ncnc3ccc(-c4ccc5c(c4)OCO5)cc23)c1		inconclusive: 16.4 µM [falling, single point]
CCOC(=O)C1CCCN(CCC(C)c2ccccc2)C1 (configuration not stated)	inactive: 13.5%	
O=C(c1cc(-c2ccncc2)nc2ccccc12)N1CCN(c2ccccc2O)CC1	inconclusive: -27%	
O=C(COC(=O)c1ccc(S(=O)(=O)C(F)F)cc1)NC(=O)NC1CCCCC1	inconclusive: -100%	
COc1cc(/C=C2/SC(=S)N(CC3CCCO3)C2=O)ccc1O (configuration not stated)		inconclusive: 29.1 µM [cytotoxic, single point]
COc1ccc(/C=C2/SC(=S)N(CCC(=O)N3CCN(C)CC3)C2=O)cc1	inconclusive: -67.6%	
Clc1ccc(/C=C/c2nc3ccccc3[nH]2)c(Cl)c1	inconclusive: 56.8%	
COC(=O)c1ccc(Nc2nc(C)nc3c2nnn3Cc2ccccc2)cc1	inconclusive: 88.7%	
COc1cccc(NC(=O)COC(=O)c2c(-c3ccccc3)noc2C)c1	inconclusive: -23.3%	
CCN(C(=O)COC(=O)c1ccc2ccccc2n1)c1c(N)n(Cc2ccccc2)c(=O)[nH]c1=O	inconclusive: 3.27%	
COc1ccc(Cc2nnc(NC(=O)c3ccccc3[N+](=O)[O-])s2)cc1	inconclusive: -35.2% [cytotoxic] [at 0.369 µM]	
O=C(NC1CCOc2ccccc21)c1ccc(Cl)nc1 (configuration not stated)		inconclusive: 23.1 µM [activator, single point]
Cc1ccc(NC(=O)c2sc3ccccc3c2Cl)nc1	inconclusive: 1.3%	
O=C(Nc1ccccc1)N1CCN(c2nc(-c3ccccc3)ns2)CC1		inconclusive: 1.46 µM [rising, partial curve]
COc1ccc(N(CC(=O)NCc2ccncc2)S(=O)(=O)c2ccc(C)c([N+](=O)[O-])c2)cc1	inconclusive: -8.66%	
O=c1nccc(Nc2ccccc2)[nH]1	inconclusive: 9.8%	
CC1=CS(=O)(=O)CC1SC(=S)N(C)C1CCS(=O)(=O)C1 (configuration not stated)	inconclusive: 25.8%	
CC(=O)c1cccc(NC(=O)COC(=O)c2ccccn2)c1		inconclusive: 16.4 µM [activator, partial curve]
O=C(CSc1nnc(CNc2ccc(F)cc2)o1)N1CCCc2ccccc21	inconclusive: 28.9%	
CN1CCN(c2ccc(S(=O)(=O)N3CCOCC3)cc2NC(=O)COc2ccc(F)cc2Cl)CC1	inconclusive: 82.9%	
NC(=O)c1ccc(NC(=O)CN2CCN(S(=O)(=O)c3ccc4ccccc4c3)CC2)cc1	inconclusive: 5.3%	

3 structures from above, sorted by length of the SMILES, descending.
Structure (SMILES)	lipid storage change, negative = inhibition	Potency
COc1ccc(N(CC(=O)NCc2ccncc2)S(=O)(=O)c2ccc(C)c([N+](=O)[O-])c2)cc1	inconclusive: -8.66%	
O=C(c1cc(-c2ccncc2)nc2ccccc12)N1CCN(c2ccccc2O)CC1	inconclusive: -27%	
CCCOc1ccc(C(=O)NC(=S)NCc2cccnc2)cc1	inconclusive: 25.5%	

Additional results

Structure (SMILES)	lipid storage change, negative = inhibition	Potency
COc1ccc(-c2ccc(N(C)C)cc2)cc1[C@H]1[C@@H]2C=CCC[C@@]2(C)C(=O)N1Cc1ccccc1	inconclusive: -12.9%	
Cc1cc(N(C)C)c(C#N)c(=O)[nH]1	inconclusive: 9.44%	
O=c1c2cc(NC(=S)NCc3ccccn3)ccc2nc2n1CCCCC2	inconclusive: 22.6%	
O=C(CSc1nc2ccccc2c(=O)n1CCCN1CCOCC1)Nc1cccc(S(=O)(=O)N2CCCCCC2)c1	inconclusive: 15.8%	
O=c1c2c([N+](=O)[O-])cc([N+](=O)[O-])cc2nc2ccccn12	inconclusive: 5.88%	
COc1ccc(Nc2nc(-c3cccs3)nc3ccccc23)cc1		inconclusive: 32.6 µM [falling, single point]
Oc1ccc(-c2csc(Nc3cccc4ccccc34)n2)cc1O		inconclusive: 9.2 µM [activator, partial curve]
CCOc1ccc(N(CC(=O)Nc2ccc(OC)cc2)S(=O)(=O)c2c(C)noc2C)cc1	inconclusive: 0.997% [at 9.22 µM]	
CCN1CCN(C(=O)C(N)Cc2ccccc2)CC1 (configuration not stated)	inconclusive: 25.1% [at 9.22 µM]	
Cc1ccc(NC(=O)NC(=O)CN2CCCC2c2ccc3c(c2)OCCO3)cc1C (configuration not stated)	inconclusive: -15.9%	
O=C(CCN1C(=O)/C(=C/c2cccs2)SC1=S)NC1=NCCS1		inconclusive: 5.8 µM [falling, full curve]
COc1ccc(S(=O)(=O)N2CCC(C(=O)N[C@@H](C)C(=O)NC3CC3)CC2)cc1	inconclusive: 31.9%	
c1ccc(Cn2nnnc2C(c2ccccn2)N2CCN(c3ccccc3)CC2)cc1 (configuration not stated)	inconclusive: -98.5%	
COc1cccc(N=c2oc3ccc(OC)cc3cc2-c2nc3ccccc3[nH]2)c1	inconclusive: 5.16%	
COc1cc(C(=O)OC2CSCC2NC(=O)c2ccccc2)cc(OC)c1OC (configuration not stated)	inconclusive: 24.6%	
COc1ccc(Oc2ccc(C(F)(F)F)cc2NC(=O)c2ccc(F)cc2)cc1	inconclusive: 10.1%	
COC(Cc1nnc(SC)n1-c1ccc(Cl)cc1)OC	inconclusive: 11.6%	
CCOC(=O)c1ccc(-c2ccc(C3Nc4ccccc4C(=O)N3O)o2)cc1 (configuration not stated)	inconclusive: 22%	
Cc1cc(=O)c2cc(NC(=O)c3ccccc3Cl)ccc2[nH]1	inconclusive: 36.9%	
COc1ccc(N2CCN(C(=O)CN3C(=O)NC4(CCCc5ccccc54)C3=O)CC2)cc1 (configuration not stated)	inconclusive	
CC(C)C(=O)Nc1ncc(Cc2cccc(Cl)c2)s1	inconclusive: -2.11%	
O=C(CCc1ccccc1)NNC(=O)Nc1ccc(F)c(Cl)c1		inconclusive: 29.1 µM [falling, single point]
CC(=O)N1CC(C)Sc2ccc(S(=O)(=O)NCc3ccc(Cl)cc3)cc21 (configuration not stated)	inactive: 20.2%	
CCCCn1nnc(NC(=O)c2ccc(-c3ccccc3)cc2)n1	inconclusive: 16.3%	
CSc1nc(NNC=O)cc(Oc2ccc(NC(C)=O)cc2)n1		inconclusive: 0.0366 µM [activator, full curve, poor fit]

An excerpt of these results, field by field:
CCOc1ccc(N(CC(=O)Nc2ccc(OC)cc2)S(=O)(=O)c2c(C)noc2C)cc1
  lipid storage change, negative = inhibition: inconclusive: 0.997% [at 9.22 µM]
O=C(CCN1C(=O)/C(=C/c2cccs2)SC1=S)NC1=NCCS1
  Potency: inconclusive: 5.8 µM [falling, full curve]
CC(C)C(=O)Nc1ncc(Cc2cccc(Cl)c2)s1
  lipid storage change, negative = inhibition: inconclusive: -2.11%
